Hit rate of the full screen: of about 310,000 compounds, about 17,000 (5.5%) were called active. This list was built around the results that the source calls inconclusive (neither active nor inactive); the mix of calls is not that of the screen. Calls come from the whole dose curve; as a rule, active = well fitted inhibition curve with a large enough effect; inconclusive = small, poorly fitted or top-dose-only effect, or effect the other way; inactive = no such curve, though single readings can be large or run the other way. Potencies of inconclusive entries are doubtful fits and often do not repeat. Where a SMILES comes first, the peptide text is derived from it. The star is where a group is joined. Boc = CC(C)(C)OC(=O)*
Molecular target: Nuclear receptor ROR-gamma (Mus musculus) (UniProt P51450)
Assay: qHTS for inhibitors of ROR gamma transcriptional activity; note: nearly all actives have a fitted effect of over 60% in size
Conditions: Drosophila S2 Gal4-RORgamma UAS-luciferase reporter, 20 h; series mostly up to 53.6 µM
Summary of the method: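 Luciferase reporter read in Schneider cells carrying Gal4-RORγ (mouse) and UAS-Photinus luciferase; cells given compound 1 h before 700 uM copper sulfate induction, then incubated 20 h at ambient temperature.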
Potency is the fitted concentration of half-maximal effect.

The chains behind the UniProt entries cited, without tags or fusion partners. Where a name states a change or a piece, a line headed by the entry shows the natural chain unless it says otherwise.
UniProt P51450: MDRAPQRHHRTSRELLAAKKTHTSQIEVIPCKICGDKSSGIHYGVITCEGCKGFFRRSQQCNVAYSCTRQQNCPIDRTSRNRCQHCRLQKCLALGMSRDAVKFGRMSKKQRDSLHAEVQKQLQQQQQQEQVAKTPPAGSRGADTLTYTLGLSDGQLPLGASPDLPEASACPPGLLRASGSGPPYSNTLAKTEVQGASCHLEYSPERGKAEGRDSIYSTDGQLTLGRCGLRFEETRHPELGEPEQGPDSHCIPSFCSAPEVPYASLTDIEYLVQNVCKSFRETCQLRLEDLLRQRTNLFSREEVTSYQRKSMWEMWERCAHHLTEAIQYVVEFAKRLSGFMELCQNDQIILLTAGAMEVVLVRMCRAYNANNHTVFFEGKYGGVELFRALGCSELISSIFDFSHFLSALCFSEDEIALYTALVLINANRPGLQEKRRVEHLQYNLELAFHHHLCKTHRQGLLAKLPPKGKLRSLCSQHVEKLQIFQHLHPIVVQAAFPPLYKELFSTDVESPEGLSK

Potency, active:
CC(NC(=O)Nc1nnc(C(F)(F)F)s1)(C(F)(F)F)C(F)(F)F 5.01 µM, C=CCNc1nc(NCC)nc(N2CCOCC2)n1 2 µM, Oc1ccc(/C=N/NC(=S)NCc2ccco2)cc1 11.2 µM, Cc1ccc(-n2cc(CN3CCN(Cc4nccn4C)CC3)c(-c3cccc(C)c3)n2)cc1 10 µM, O=C(N/N=C/C=C/c1ccccc1)C1CC1(c1ccccc1)c1ccccc1 (centres undefined) 8.91 µM, O=C(N/N=C/c1ccc(-c2cccc([N+](=O)[O-])c2)o1)c1cccs1 10 µM, COc1ccccc1NC(=S)Nc1ccccn1 1.58 µM

Potency, inconclusive:
O=C(CCl)c1ccc2c(c1)CCN2C(=O)C1CC1 22.4 µM [inhibitor, single point], Cc1cccc(C(=O)O/N=C(\N)Cc2cccc3ccccc23)c1 15.8 µM [inhibitor, single point], Cc1ccc2nc(-c3ccccc3)cc(C(=O)N3CCc4ccccc4C3)c2c1 17.8 µM [inhibitor, single point], Cc1cc(C)c(S(=O)(=O)c2c(C)cccc2C)c(OCC(C)C)n1 1.58 µM [inhibitor, partial curve], Cc1ccc(N2C(=O)c3cccc(Oc4ccc(Cl)cc4)c3C2=O)c(C)c1 15.8 µM [activator, single point], Cc1c(CCC(=O)N[C@@H](C)C(=O)O)c(=O)oc2c(C)c3oc4c(c3cc12)CCCC4 0.282 µM [inhibitor, full curve, poor fit], CC1Oc2ccccc2C=C1/C=N/Nc1ccc(C(=O)O)cc1 (centres undefined) 4.47 µM [inhibitor, partial curve, poor fit], COC(=O)c1cccc(NC(=S)Nc2cc(Cl)ccc2OC)c1 25.1 µM [inhibitor, single point], CCCC1CCC(c2ccc(OCC)cc2)=CC1=O (centres undefined) 8.91 µM [activator, partial curve], CCCNc1nc(Nc2ccc(C)cc2)nc(N2CCCC2)n1 35.5 µM [inhibitor, single point], COc1cc(C(=O)NC2CCN(CC(=O)Nc3cccc(C)c3C)CC2)cc(OC)c1OC 8.91 µM [activator, partial curve], c1cnc(SCCOc2cccc3ccccc23)nc1 17.8 µM [activator, single point], CCn1cc(S(=O)(=O)N2CCN(c3ccc(Cl)cc3)CC2)cn1 28.2 µM [activator, single point], CCC(C)C(NC(=O)OC(C)(C)C)C(=O)NC(C(=O)N1CCCC1C(N)=O)C(C)CC (stereo not drawn) (Boc-Ile-Ile-Pro-NH2; configuration not given here) 35.5 µM [activator, single point], CC(C)Cc1nnc(NS(=O)(=O)Cc2ccccc2)s1 0.316 µM [inhibitor, full curve, poor fit], CC(NC(=O)Nc1ccccc1)C(c1ccccc1)N1CCOCC1 (centres undefined) 35.5 µM [activator, single point], O=C(Nc1nccs1)c1ccc2c(c1)C(=O)N(Cc1cccnc1)C2=O 7.08 µM [activator, partial curve, poor fit], O=C(Nc1ccc(S(=O)(=O)Nc2ccccc2)cc1)c1ccc(CN2CCOCC2)cc1 14.1 µM [activator, partial curve], COc1ccc(NC(=O)c2cccnc2)cc1OCC(C)C 31.6 µM [activator, single point], O=C(N/N=C/c1cccc(Oc2ccc([N+](=O)[O-])cc2[N+](=O)[O-])c1)c1cncc(Br)c1 17.8 µM [inhibitor, single point], O=C(CN1CCN(Cc2ccc(Cl)cc2)C1=O)NCCCN1CCN(c2ccc(F)cc2)CC1 35.5 µM [activator, single point], O=C(Cn1nc(CNc2ccc(Cl)cc2)[n+]2c1CCCCC2)c1ccc(Br)cc1 17.8 µM [activator, single point], CCCN(CCC)CCNS(=O)(=O)c1ccc2c(c1)oc(=O)n2C 0.126 µM [activator, single point], O=C(/C(N=Nc1cccc(C(F)(F)F)c1)=C(/O)c1cccs1)C(F)(F)F 10 µM [inhibitor, single point], CCn1c(C)nc2cc(C(=O)NNC(=O)CCC3CCCC3)ccc21 11.2 µM [activator, partial curve], Cc1ccc(-c2nn(CCC(=O)O)cc2/C=C\C(=O)c2ccc(Br)cc2)cc1 35.5 µM [inhibitor, single point], O=C(CC1C(=O)NCCN1CCCc1ccccc1)NCCc1ccccc1F (centres undefined) 22.4 µM [activator, single point], O=C(Nc1ccc2c(c1)C(=O)N(CC1CCCO1)C2=O)c1cccc(Br)c1 (centres undefined) 17.8 µM [activator, single point], CNS(=O)(=O)c1cccc(C(=O)OCC(=O)Nc2ccc(N3CCCCC3)cc2)c1 0.708 µM [activator, single point]

Potency, inactive:
COc1ccc2[nH]c(=O)c(CN(CCN3CCCC3)C(=O)Nc3ccccc3Cl)cc2c1, CCC1CCCCN1CCCNC(=O)c1c(O)nc2cc(C)ccn2c1=O (centres undefined), Cc1ccc(NC(=O)N2CCc3ccccc3C2)cc1, Cn1c(=O)n(C)c2cc(S(=O)(=O)Nc3ccccc3)ccc21, Cc1ccc(C(=O)CN(Cc2ccccc2)C2=NCCS2)cc1, O=C(CCN1C(=O)/C(=C/c2ccccc2Cl)SC1=S)NCCCN1CCOCC1, COc1ccccc1N1CCN(CCCC(=O)c2ccc(F)cc2)CC1, O=c1c2ccccc2nnn1CCO

Source: PubChem BioAssay AID2551 (National Center for Advancing Translational Sciences (NCATS), 2010)
